Results taken from PMC9889334.
The exact form of at least one protein or probe is not confirmed.

Test system: PaCgi121 + PaBud32 + PaKae1 + PaPcc1-His6
Assay: fluorescence anisotropy
Settings: CBKP1 complex, 3 mM Mg2+, n=4; 20 mM Tris-HCl pH 8, 150 mM KCl, 3 mM MgCl2, 1% glycerol, 1 nM labelled tRNA (10 nM in Suppl. Fig. 7C), 20 °C, 15 min; recombinant protein; protein details: His6; label: 3' fluorescein

Sequence: GGGCCGGUAGCUCAGCCUGGUCAGAGCACCGGGCUUUUAACCCGGUGGUCGCGGGUUCAAAUCCCGCCCGGCCCGCCA [Pa_tRNALys (UUU)]
- Kd: 13 nM
